Source: patent publication US20240239891A1
Results are given in words; binding and its absence hold for the method and conditions named. Some binding calls cover weakened binding; strength is not graded here. One block for each binder: values may come before it.

Legend:
mRNF43 ECD = molecular target: T1, mRNF43 ECD; assay: SPR (Biacore), ligand mRNF43 ECD, nanobody as analyte
T1 sequence: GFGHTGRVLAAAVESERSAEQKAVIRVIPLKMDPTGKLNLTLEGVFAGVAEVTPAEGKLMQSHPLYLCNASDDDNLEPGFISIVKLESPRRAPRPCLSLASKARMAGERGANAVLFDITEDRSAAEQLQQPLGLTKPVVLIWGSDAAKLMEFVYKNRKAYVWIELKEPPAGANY

hRNF43 ECD = molecular target: T2, hRNF43 ECD; assay: SPR (Biacore), ligand hRNF43 ECD, nanobody as analyte
T2 sequence: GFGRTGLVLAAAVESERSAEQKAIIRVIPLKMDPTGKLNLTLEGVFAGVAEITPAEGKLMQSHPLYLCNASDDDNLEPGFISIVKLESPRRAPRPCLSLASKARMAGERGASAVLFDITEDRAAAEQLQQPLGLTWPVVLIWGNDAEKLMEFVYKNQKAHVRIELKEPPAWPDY

[1] = molecular target: T3, extracellular domain (ECD) of human GRAIL (RNF128) (human) (UniProt Q8TEB7); assay: SPR (Biacore), ligand hRNF128 ECD (GRAIL), nanobody as analyte
T3 sequence (looked up): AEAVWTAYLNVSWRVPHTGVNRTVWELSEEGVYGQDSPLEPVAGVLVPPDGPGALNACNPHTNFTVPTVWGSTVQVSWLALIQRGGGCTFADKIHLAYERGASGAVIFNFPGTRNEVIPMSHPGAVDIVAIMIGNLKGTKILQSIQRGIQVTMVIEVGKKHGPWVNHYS

[2] = molecular target: T4, extracellular domain (ECD) of human GOLIATH (RNF130) (human) (UniProt Q86XS8); assay: SPR (Biacore), ligand hRNF130 ECD (GOLIATH), nanobody as analyte [CONT. 3]
T4 sequence (looked up): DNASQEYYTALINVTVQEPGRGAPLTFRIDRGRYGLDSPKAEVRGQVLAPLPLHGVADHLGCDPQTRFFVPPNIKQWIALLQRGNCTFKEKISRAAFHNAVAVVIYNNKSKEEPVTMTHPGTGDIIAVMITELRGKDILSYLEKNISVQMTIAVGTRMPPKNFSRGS

[3] = molecular target: T3, extracellular domain (ECD) of human GRAIL (RNF128) (human); assay: SPR (Biacore), ligand hRNF128 ECD (GRAIL), nanobody as analyte [CONT. 3]
[4] = molecular target: GOLIATH (RNF130) on human cells (human) (UniProt Q86XS8); assay: flow cytometry, human PBMC gated on CD4+ T cells, streptavidin tetramerized nanobody; unstimulated, CD3 or CD3+CD28 stimulated; controls SA647+SA and blocked
[5] = molecular target: GOLIATH (RNF130) on human cells (human) (UniProt Q86XS8); assay: flow cytometry, human PBMC gated on CD8+ T cells, streptavidin tetramerized GOLIATH nanobody (legend paragraph 56; the panel title prints GRAIL); unstimulated, CD3 or CD3+CD28 stimulated; controls SA647+SA and blocked
[6] = molecular target: GOLIATH (RNF130) on human cells (human) (UniProt Q86XS8); assay: flow cytometry, human PBMC gated on NK cells [CD3- CD14- CD56+], streptavidin tetramerized nanobody; unstimulated, CD3 or CD3+CD28 stimulated; controls SA647+SA and blocked
[7] = molecular target: GOLIATH (RNF130) on human cells (human) (UniProt Q86XS8); assay: flow cytometry, human PBMC gated on B cells [CD3- CD14- CD19+] (title on the sheet and legend paragraph 58), streptavidin tetramerized nanobody; unstimulated, CD3 or CD3+CD28 stimulated; controls SA647+SA and blocked
[8] = molecular target: GOLIATH (RNF130) on human cells (human) (UniProt Q86XS8); assay: flow cytometry, human PBMC gated on B cells [CD3- CD14- CD19+], streptavidin tetramerized nanobody; unstimulated, CD3 or CD3+CD28 stimulated; controls SA647+SA and blocked
mZNRF3 ECD = assay: SPR (Biacore), ligand mZNRF3 ECD, nanobody as analyte
hZNRF3 ECD = assay: SPR (Biacore), ligand hZNRF3 ECD, nanobody as analyte

B2: GRAIL (RNF128) VHH of SEQ ID NO: 1 (VHH)
VHH: QVQLQESGGGLVQAGGSLRLSCAASGYIFYGVHMGWYRQAPGKEREFVAAIDLGTTTYYADSVKGRFTISRDNAKNTVYLQMNSLKPEDTAVYYCAVYFDGLTNLPYWGQGTQVTVSS
- binding [1]: binds

B3: GOLIATH (RNF130) VHH of SEQ ID NO: 8 (VHH)
VHH: QVQLQESGGGLVQAGGSLRLSCAASGTISFIGYMGWYRQAPGKERELVASIASGTSTYYADSVKGRFTISRDNAKNTVYLQMNSLKPEDTAVYYCAATQYIQDAHRYWGQGTQVTVSS
- binding [2]: binds
- binding [3]: binds
- binding [4]: binds
- binding [5]: binds
- binding [6]: binds
- binding [7]: binds
- binding [8]: binds

Further lines, results first:

- binding (mRNF43 ECD): binds
- binding (hRNF43 ECD): binds
B1: RNF43 VHH of SEQ ID NO: 12 (VHH)
VHH: QVQLQESGGGLVQAGGSLRLSCAASGSIFWKPVMGWYRQAPGKEREFVAAITSGTNTYYADSVKGRFTISRDNAKNTVYLQMNSLKPEDTAVYYCAVDDYDVVEYPYWGQGTQVTVSS

- binding (mZNRF3 ECD): binds
- binding (hZNRF3 ECD): binds
B4: ZNRF3 VHH of SEQ ID NO: 13 (VHH)
VHH: QVQLQESGGGLVQAGGSLRLSCAASGTIFYTLFMGWYRQAPGKEREFVAGIGRGGITYYADSVKGRFTISRDNAKNTVYLQMNSLKPEDTAVYYCAVWYDFLHSDSQAYSYWGQGTQVTVSS

- binding (hRNF43 ECD): binds
B5: RNF43 VHH of SEQ ID NO: 10 (VHH)
VHH: QVQLQESGGGLVQAGGSLRLSCAASGTIFDDLLMGWYRQAPGKERELVAAIGAGATTNYADSVKGRFTISRDNAKNTVYLQMNSLKPEDTAVYYCAAWWLYYKGDWALYLYWGQGTQVTVSS
